Experimental data: the supplement of paper PMC10849652
The list shows a part of the results.

Protein sequences, listed by entry. Tags and fused reporters are not part of them. Lines headed by an entry give the natural chain unless they say otherwise; changes in a name come on top.
UniProt P55081: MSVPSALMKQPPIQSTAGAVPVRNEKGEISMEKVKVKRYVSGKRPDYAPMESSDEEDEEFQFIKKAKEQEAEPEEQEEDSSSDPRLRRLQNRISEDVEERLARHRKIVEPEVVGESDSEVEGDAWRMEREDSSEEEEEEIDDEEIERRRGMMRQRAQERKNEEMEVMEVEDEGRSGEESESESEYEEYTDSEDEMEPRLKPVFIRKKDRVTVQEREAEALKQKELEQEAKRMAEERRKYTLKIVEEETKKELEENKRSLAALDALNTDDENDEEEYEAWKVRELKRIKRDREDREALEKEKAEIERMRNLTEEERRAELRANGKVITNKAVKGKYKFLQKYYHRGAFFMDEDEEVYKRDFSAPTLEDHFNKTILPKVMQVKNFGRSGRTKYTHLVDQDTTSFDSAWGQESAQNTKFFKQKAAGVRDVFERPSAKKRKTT
UniProt Q02078: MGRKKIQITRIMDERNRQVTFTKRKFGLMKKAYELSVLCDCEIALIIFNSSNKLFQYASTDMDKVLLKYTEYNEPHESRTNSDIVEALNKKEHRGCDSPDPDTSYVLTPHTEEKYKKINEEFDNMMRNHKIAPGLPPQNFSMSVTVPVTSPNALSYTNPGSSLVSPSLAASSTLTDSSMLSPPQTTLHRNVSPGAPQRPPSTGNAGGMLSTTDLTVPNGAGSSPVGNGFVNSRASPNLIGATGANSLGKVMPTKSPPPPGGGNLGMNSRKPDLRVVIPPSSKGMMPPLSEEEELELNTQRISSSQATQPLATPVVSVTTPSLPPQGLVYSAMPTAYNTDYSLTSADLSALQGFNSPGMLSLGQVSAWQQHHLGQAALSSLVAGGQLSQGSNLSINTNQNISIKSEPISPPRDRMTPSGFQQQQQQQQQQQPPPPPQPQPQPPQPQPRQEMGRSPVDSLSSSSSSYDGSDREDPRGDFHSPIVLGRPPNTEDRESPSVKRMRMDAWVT
UniProt Q12866: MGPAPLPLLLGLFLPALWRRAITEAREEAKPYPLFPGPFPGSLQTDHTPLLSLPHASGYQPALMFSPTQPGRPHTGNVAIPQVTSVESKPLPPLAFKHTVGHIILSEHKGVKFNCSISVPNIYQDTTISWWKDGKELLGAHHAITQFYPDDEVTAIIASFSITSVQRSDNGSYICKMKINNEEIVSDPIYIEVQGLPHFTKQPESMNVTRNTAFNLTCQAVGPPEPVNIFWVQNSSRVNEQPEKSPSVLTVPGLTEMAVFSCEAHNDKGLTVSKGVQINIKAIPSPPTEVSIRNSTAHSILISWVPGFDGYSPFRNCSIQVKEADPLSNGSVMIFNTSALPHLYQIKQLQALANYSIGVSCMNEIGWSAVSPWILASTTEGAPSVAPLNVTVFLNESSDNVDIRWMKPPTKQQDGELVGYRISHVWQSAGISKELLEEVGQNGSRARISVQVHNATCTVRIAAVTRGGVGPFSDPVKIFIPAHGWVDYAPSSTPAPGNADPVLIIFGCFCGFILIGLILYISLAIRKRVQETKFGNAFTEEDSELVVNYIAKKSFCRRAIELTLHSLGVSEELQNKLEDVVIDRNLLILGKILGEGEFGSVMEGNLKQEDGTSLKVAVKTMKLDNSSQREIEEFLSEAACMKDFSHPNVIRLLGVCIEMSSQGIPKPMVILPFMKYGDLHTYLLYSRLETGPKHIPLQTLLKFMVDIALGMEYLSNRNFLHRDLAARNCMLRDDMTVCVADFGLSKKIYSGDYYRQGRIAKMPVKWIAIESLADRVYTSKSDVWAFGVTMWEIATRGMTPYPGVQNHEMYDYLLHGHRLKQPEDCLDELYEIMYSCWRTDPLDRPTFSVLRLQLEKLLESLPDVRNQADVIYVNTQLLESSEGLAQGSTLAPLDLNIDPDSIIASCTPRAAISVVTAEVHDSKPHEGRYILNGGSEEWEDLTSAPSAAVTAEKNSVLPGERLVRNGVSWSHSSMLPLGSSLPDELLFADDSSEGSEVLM
UniProt Q9BUT9: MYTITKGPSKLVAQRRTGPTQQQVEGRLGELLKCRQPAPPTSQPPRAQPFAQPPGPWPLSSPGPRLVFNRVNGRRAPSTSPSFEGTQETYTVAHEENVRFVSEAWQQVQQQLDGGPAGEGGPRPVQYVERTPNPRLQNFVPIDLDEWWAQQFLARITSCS
UniProt Q8WXB1: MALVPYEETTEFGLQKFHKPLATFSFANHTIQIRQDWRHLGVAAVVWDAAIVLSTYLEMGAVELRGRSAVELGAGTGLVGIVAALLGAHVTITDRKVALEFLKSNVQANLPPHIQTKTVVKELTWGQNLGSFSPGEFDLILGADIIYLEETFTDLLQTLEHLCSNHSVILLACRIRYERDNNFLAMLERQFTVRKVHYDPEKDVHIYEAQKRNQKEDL

Compound: c1cn2cc(-c3ccc4cn[nH]c4c3)nc(Nc3ccc(N4CCOCC4)cc3)c2n1 [entospletinib]
Test: log2 fold change, soluble protein after heating vs DMSO (PISA); higher = thermal stabilisation; K562 cells, 10 uM, 30 min; active = over 0.2 and 3.5 SD of the protein, either way, in both replicates (recomputed)
Summary of the method: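 K562 cells at 2×10^6 cells/mL were given 10 μM compound for 30 min. Aliquots then went through 3 min of heating across 48°C-58°C, were pooled, and were extracted in PBS with 0.5% NP-40 at 4°C, and the supernatant after 21,000xg for 90 min was quantified by TMTpro 16plex LC-MS/MS with channel sums equalised. Thermal stability relative to control samples, from duplicates, is given as log2 fold change.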

log2 fold change, inactive:
MEAF6 isoform 3 (UniProt Q9HAF1) 0.004
MFAP1 (UniProt P55081) 0.048
MEF2A (UniProt Q02078) -0.128
MERTK (UniProt Q12866) -0.089
MCRIP2 (UniProt Q9BUT9) -0.011
METTL21A (UniProt Q8WXB1) -0.054
